{"source": "PubChem BioAssay AID540256", "about": "(National Center for Advancing Translational Sciences (NCATS), 2011)", "note": "About 3,700 (1.2%) of roughly 300,000 compounds were called active. The inconclusive results got no clear call from the source; some entries with a clear call stand among them for comparison. Calls follow the shape of the full dose curve; tested in HEK293 cells. Where the call is inconclusive, the potency comes from a doubtful curve fit. Potency is read from the fitted curve at half-maximal effect."}
{"experiment": "qHTS for Inhibitors of binding or entry into cells for Lassa Virus; also: nearly all actives have a fitted effect of over 50% in size", "conditions": "Lassa virus pseudotype entry inhibition, cell reporter; series mostly up to 37.9 µM"}
{"smiles": "CCOc1ccccc1N(CC(=O)Nc1ccc2c(c1)OCCO2)S(C)(=O)=O", "Potency": "inactive"}
{"smiles": "COc1ccc(C(=O)N(Cc2ccco2)Cc2cccs2)c(O)c1", "Potency": "inactive"}
{"smiles": "O=P(Nc1ccccc1Cl)(c1ccccc1)c1nc2c(s1)CCCC2", "note": "(stereo unspecified)", "Potency": "inconclusive: 0.259 µM [inhibitor, single point]"}
{"smiles": "Cc1cccc(C)c1OCC(=O)Nc1cccc(NC(=O)c2ccco2)c1", "Potency": "inconclusive: 35.5 µM [inhibitor, single point]"}
{"smiles": "N#CCCN1CCCN(CCC#N)CCN(CCC#N)CCCN(CCC#N)CC1", "Potency": "inconclusive: 35.5 µM [activator, single point]"}
{"smiles": "O=C(OC12CC3CC(CC(C3)C1)C2)c1ccc(NCc2cc(O)ccc2O)cc1", "Potency": "active: 10 µM"}
{"smiles": "Cc1ccc(OCCCC(=O)Nc2nnc(C3CCCO3)s2)c(C)c1", "note": "(stereo unspecified)", "Potency": "inconclusive: 39.8 µM [activator, partial curve, poor fit]"}
{"smiles": "COc1cc(OC)cc(C(=O)Nc2nc(CC(=O)NCc3ccccc3OC)cs2)c1", "Potency": "inconclusive: 10 µM [inhibitor, partial curve, poor fit]"}
{"smiles": "CC(=O)c1cccc(NC(=O)NC2CC(=O)N(c3ccc4c(c3)OCCO4)C2)c1", "note": "(stereo unspecified)", "Potency": "inactive"}
{"smiles": "COc1ccccc1NS(=O)(=O)c1cccc(NC(=O)Nc2cccc(Cl)c2)c1", "Potency": "active: 12.6 µM"}
{"smiles": "CCOC(=O)CC(NC(=O)c1cc2cc(OC)ccc2oc1=O)c1ccc(OC)cc1", "note": "(stereo unspecified)", "Potency": "inactive"}
{"smiles": "Cc1cccc(C(=O)Nc2nnc(S(=O)(=O)N3CCC(C)CC3)s2)c1", "Potency": "inconclusive: 6.31 µM [activator, full curve]"}
{"smiles": "CN1CCN(C(=O)c2cc(-c3cccc(Cl)c3)on2)CC1", "Potency": "inconclusive: 7.08 µM [activator, partial curve, poor fit]"}
{"smiles": "Oc1ccc(/C=N/N2CCOCC2)c(O)c1O", "Potency": "inactive"}
{"smiles": "CCOC(=O)Cc1c(C)nc2c(-c3ccc(OC)c(OC)c3)c(C)nn2c1C", "Potency": "inconclusive: 7.94 µM [inhibitor, partial curve, poor fit]"}
{"smiles": "Cc1cccc(N=N/C(=C\\O)C(=O)c2cccs2)c1", "Potency": "inconclusive: 12.6 µM [inhibitor, partial curve, poor fit]"}
{"smiles": "Cc1cc2n(n1)SC(Nc1ccc(F)cc1)N2", "note": "(stereo unspecified)", "Potency": "inconclusive: 1.64 µM [activator, single point]"}
{"smiles": "CN(C)c1ccc(C=NNC(=O)c2cccnc2)cc1", "Potency": "inactive"}
{"smiles": "COc1ccc(Cl)cc1NC(=O)Nc1ccc(C(=O)N2CCOCC2)cc1", "Potency": "inconclusive: 7.94 µM [inhibitor, partial curve]"}
{"smiles": "CN(C)CCCN1c2ccccc2Sc2ccc(Cl)cc21", "Potency": "active: 23.1 µM"}
{"smiles": "C=C[C@H](CCCCCC)[C@@H]1C[C@H](CCCCCCCCCCC)O[P@](=O)(OC)O1", "Potency": "inconclusive: 15.8 µM [inhibitor, partial curve, poor fit]"}
{"smiles": "COc1ccc(C)cc1NC(=O)CCC(=O)Nc1nnc(C2CCCCC2)s1", "Potency": "inconclusive: 10 µM [activator, partial curve, poor fit]"}
{"smiles": "O=C(O)c1cccc(COc2cccc3ccccc23)c1", "Potency": "inconclusive: 3.98 µM [inhibitor, partial curve, poor fit]"}
{"smiles": "CC1CC(C)CN(S(=O)(=O)c2ccc(C(=O)N(c3ccccn3)C3CCCCC3)cc2)C1", "note": "(stereo unspecified)", "Potency": "inconclusive: 6.31 µM [inhibitor, partial curve, poor fit]"}
{"smiles": "CCc1ccc(NC(=O)NCCN2CCc3ccccc3C2)cc1", "Potency": "inconclusive: 35.5 µM [activator, single point]"}
{"smiles": "O=C(NN=C1CCCCCC1)c1cn(-c2ccccc2)nc1-c1ccccc1", "Potency": "inconclusive: 25.9 µM [inhibitor, partial curve, poor fit]"}
{"smiles": "COCC(=O)N/N=C/c1c(C)[nH]n(-c2ccccc2)c1=O", "Potency": "inactive"}
{"smiles": "CCCC1(C)C(C#N)(C#N)C1(C#N)C#N", "Potency": "active: 4.11 µM"}
{"smiles": "Cc1c(Nc2nc(-c3ccccc3)cs2)c(=O)n(-c2ccccc2)n1C", "Potency": "inactive"}
{"smiles": "O=S(=O)(Cc1nnnn1-c1ccc(Br)cc1)c1ccc(F)cc1", "Potency": "inconclusive: 35.5 µM [inhibitor, single point]"}
{"smiles": "Nc1nc(SCC(=O)N2CCc3ccccc32)[nH]c(=O)c1-c1ccccc1", "Potency": "inactive"}
{"smiles": "CCn1c(COc2ccccc2C(N)=O)nc2ccccc21", "Potency": "inactive"}
{"smiles": "CC(=O)NCc1ccc(C(=O)CCl)s1", "Potency": "inconclusive: 22.4 µM [inhibitor, single point]"}
{"smiles": "Cc1c(Cl)cccc1NC(=O)C(C)n1nc(C)c2c(C)n(-c3ccccc3)nc2c1=O", "note": "(stereo unspecified)", "Potency": "inactive"}
{"smiles": "CC(=O)Nc1ccc(S(=O)(=O)NC2(C(F)(F)F)C(=O)NC(C)=C2C#N)cc1", "note": "(stereo unspecified)", "Potency": "inconclusive: 5.62 µM [inhibitor, single point]"}
{"smiles": "O=C(NC(n1ccc(=O)[nH]c1=O)C(Cl)(Cl)Cl)C12CC3CC(CC(C3)C1)C2", "note": "(stereo unspecified)", "Potency": "inconclusive: 12.6 µM [inhibitor, partial curve, poor fit]"}
{"smiles": "Cc1ccc(C(=O)N2CCCCC2)cc1S(=O)(=O)N1CCCCCC1", "Potency": "inactive"}
{"smiles": "O=C(CC1(O)C(=O)N(CCc2ccccc2)c2ccc(Br)cc21)c1ccccc1", "note": "(stereo unspecified)", "Potency": "inactive"}
{"smiles": "COc1ccc(C(=O)Nc2ccc(S(=O)(=O)N(C)c3ccccc3)cc2)cc1", "Potency": "inconclusive: 14.1 µM [inhibitor, single point]"}
{"smiles": "c1ccc2c(c1)[nH]c1cnccc12", "Potency": "inactive"}
{"smiles": "CCOc1ccccc1CNC(=O)C1CCN(c2nnc(C)c3c(C)n(-c4ccc(C)cc4)nc23)CC1", "Potency": "inactive"}
{"smiles": "CC(CCN1CCCc2nc(C)c(C)cc21)=NOC[C@@H](O)[C@H]1O[C@@H]2OC(C)(C)O[C@H]2[C@@H]1O", "Potency": "inconclusive: 2.11 µM [activator, single point]"}
{"smiles": "O=C(COC(=O)c1ccccc1C(=O)c1ccc(Cl)c([N+](=O)[O-])c1)NC1CC1", "Potency": "inconclusive: 15.8 µM [inhibitor, partial curve, poor fit]"}
{"smiles": "CC(=O)c1c(C)[nH]c(C(=O)OCC(=O)Nc2cc(C(F)(F)F)ccc2N2CCOCC2)c1C", "Potency": "active: 22.4 µM"}
{"smiles": "Cc1ccc(NC(=O)c2cc(C)on2)cc1", "Potency": "inconclusive: 23.1 µM [inhibitor, single point]"}
{"smiles": "COc1ccccc1CNC(=O)CN1C(=O)NC2(CCCCCC2)C1=O", "Potency": "inactive"}
{"smiles": "CN(CC(=O)Nc1ccccc1Br)C(=O)c1ccncc1", "Potency": "inconclusive: 0.141 µM [inhibitor, single point]"}
{"smiles": "CN1C(=O)/C(=C\\c2ccc(OC(=O)c3ccco3)cc2)SC1=S", "Potency": "inconclusive: 3.98 µM [activator, full curve, poor fit]"}
{"smiles": "O=C(Nc1ccc(N2CCOCC2)cc1)c1ccc(S(=O)(=O)N2CCCCC2)cc1", "Potency": "inactive"}
{"smiles": "O=C1N=C(N2CCC(Cc3ccccc3)CC2)S/C1=C/c1cn[nH]c1-c1ccccc1", "Potency": "inconclusive: 29.1 µM [inhibitor, single point]"}
{"smiles": "CCOC(=O)c1cccc(NC(=O)CC2C(=O)N(c3ccccc3)C(=O)N2Cc2ccco2)c1", "note": "(stereo unspecified)", "Potency": "inactive"}
{"smiles": "CCc1ccc2oc(C(=O)Nc3nc(-c4ccc(F)cc4)ns3)c(C)c2c1", "Potency": "inconclusive: 3.98 µM [activator, full curve]"}
{"smiles": "COc1ccc(NC(=O)CCCCC(=O)Nc2ccc(OC)cc2OC)c(OC)c1", "Potency": "inconclusive: 11.2 µM [activator, partial curve, poor fit]"}
{"smiles": "COC(=O)C1=C(C)N(CCCC(=O)O)C(=O)NC1c1cccs1", "note": "(stereo unspecified)", "Potency": "inconclusive: 3.26 µM [activator, full curve, poor fit]"}
{"smiles": "NS(=O)(=O)c1ccc(NC(=O)Cn2nc(C(=O)O)c3ccccc3c2=O)cc1", "Potency": "inactive"}
{"smiles": "O=C(c1cc(Cl)ccc1[N+](=O)[O-])n1cnc2ccccc21", "Potency": "inconclusive: 7.31 µM [inhibitor, partial curve, poor fit]"}
{"smiles": "O=C(C1CCCN(S(=O)(=O)c2ccc(F)cc2)C1)N1CCOCC1", "note": "(stereo unspecified)", "Potency": "inconclusive: 1 µM [inhibitor, full curve, poor fit]"}
{"smiles": "O=C(NCc1ccc2c(c1)OCO2)C1CCCN1C(=O)Nc1cccc(F)c1", "note": "(stereo unspecified)", "Potency": "inactive"}
{"smiles": "CN(C)c1ccnc2sc(C(=O)NCc3ccccc3)c(N)c12", "Potency": "inconclusive: 3.66 µM [activator, single point]"}
{"smiles": "Cc1nc2ccccc2c2nc(NC(=O)Cc3ccccc3)nn12", "Potency": "inactive"}
{"smiles": "COc1cc(NC(=O)Nc2cc(C)on2)cc(OC)c1OC", "Potency": "inactive"}
{"smiles": "O=C(CCc1c[nH]c2ccccc12)N1CCN(c2ccc(O)cc2)CC1", "Potency": "inconclusive: 10 µM [inhibitor, partial curve, poor fit]"}
{"smiles": "Cc1ccccc1CN1CCC(CNC(=O)c2cc3ccc4cccnc4c3[nH]2)CC1", "Potency": "inconclusive: 22.4 µM [inhibitor, single point]"}
{"smiles": "CC(C)Cc1ccc(C#N)c(SCC(N)=O)n1", "Potency": "inconclusive: 0.164 µM [inhibitor, full curve, poor fit]"}
{"smiles": "COc1ccc(C2c3[nH]c4ccccc4c3CCN2CCCn2cccn2)c(F)c1", "note": "(stereo unspecified)", "Potency": "inconclusive: 14.1 µM [inhibitor, partial curve, poor fit]"}
{"smiles": "COc1ccc(OC)c(C(=O)c2ccc(C(=O)Nc3ccc(NC(C)=O)cc3)cc2)c1", "Potency": "inconclusive: 20 µM [inhibitor, partial curve, poor fit]"}
{"smiles": "NC(=O)CSc1nnnn1-c1cccc(Cl)c1", "Potency": "inactive"}
{"smiles": "CCC(C)C(=O)Nc1ccccc1N1CCN(c2ccc(F)cc2)CC1", "note": "(stereo unspecified)", "Potency": "inconclusive: 22.4 µM [inhibitor, single point]"}
{"smiles": "CC(=O)c1ccc2c(c1)C1C=CCC1C(C(=O)O)N2", "note": "(stereo unspecified)", "Potency": "inactive"}
{"smiles": "Cc1ccc(C(=O)c2cn[nH]c2-c2ccccc2O)cc1", "Potency": "inconclusive: 20 µM [activator, single point]"}
{"smiles": "Cc1ccc(NC(=O)CS(=O)CC(=O)N(c2ccccc2F)C(C)C(=O)NC2CCCC2)cc1", "note": "(stereo unspecified)", "Potency": "inconclusive: 1.78 µM [activator, partial curve, poor fit]"}
